# Hit rate of the full screen: of about 340,000 compounds, about 170 (0.05%) were called active. The inconclusive results got no clear call from the source; some entries with a clear call stand among them for comparison. Calls come from the whole dose curve; as a rule, active = well fitted inhibition curve with a large enough effect in the signal ratio, with a control signal flat (not every such curve was filed as active); inconclusive = small, poorly fitted or top-dose-only effect, or effect the other way, or a change in a side signal; inactive = flat fitted curve, though single readings scatter; the % refers to the signal ratio. Potencies of inconclusive entries are doubtful fits and often do not repeat.
# Test: qHTS Assay to Find Inhibitors of Chronic Active B-Cell Receptor Signaling;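 for activity change, negative = inhibition: plate controls were basal doxycycline-induced cells for no effect and cells given 10 µM MG132 for full effect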
# Settings: ABC-DLBCL IkBa-CBG/CBR reporter, luminescence ratio (green luciferase fused to IkBa over red control in TMD8 lymphoma cells), 4 h; activity change, negative = inhibition: at 46.1 µM (top of the series) unless noted
# How it was run: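 TMD8 human ABC-DLBCL cells with doxycycline-inducible IκBα–green luciferase fusion and unfused red luciferase, in 0.5% FBS medium; compounds up to 46 uM, 4 h at 37C. Green/red luminescence ratio, filter-overlap corrected, fitted to concentration-response curves.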
# Potency is the fitted concentration of half-maximal effect.
Compound,"activity change, negative = inhibition",Potency
COc1cc2c(C#N)c(N3CCCC3)nc(N)c2c(N)n1,inconclusive: 9.27%,
CC1=NN(C(N)=S)C(=O)C1N=Nc1cccc(Cl)c1 (centres undefined),inconclusive: 0.371%,
COc1ccc(/C=N/NC(=S)Nc2ccccc2)cc1COc1ccccc1F,inconclusive: 0.151%,
CCOC(=O)c1c(CC(C)C)csc1NC(=O)CCl,inconclusive: -19.8%,
CCC(CC)NCC(O)COc1ccc(Br)cc1 (centres undefined),inactive: -13.3%,
Cc1ccc(OCc2nnc(SC(C)C(=O)O)n2Cc2ccccc2)cc1 (centres undefined),inconclusive: -1.63%,
CN(C)CCCN(C(=O)c1ccc2c(c1)CCCC2)c1nc2ccc(Cl)cc2s1,inconclusive: -17.1%,
COc1ccc(Nc2nc(-c3ccc(OC)cc3)cs2)cc1,inconclusive: 4.83%,
COc1cc(C(=O)N/N=C/c2sccc2C)cc(OC)c1OC,,"inconclusive: 20 µM [falling, partial curve, poor fit]"
CCCCN(C(=O)c1ccc(N2C(=O)c3ccccc3C2=O)cc1)c1c(N)n(CC(C)C)c(=O)[nH]c1=O,inconclusive: -2.15%,
NC(=O)CC(NC(=O)Cc1ccc(Cl)cc1)c1ccc(NC2CCN(Cc3ccccc3)CC2)c([N+](=O)[O-])c1 (centres undefined),,"inconclusive: 25.1 µM [falling, single point]"
O=C(COc1c(Br)cc(Br)c2cccnc12)N1CCCCC1,inactive: 2.39%,
Cc1ccn(CC(=O)N2CCCC(C(=O)c3cccc4ccccc34)C2)n1 (centres undefined),inconclusive: -8.13%,
C/C(CCc1ccccc1)=N\NC(=O)c1ccccc1,,"inconclusive: 18.4 µM [falling, partial curve]"
O=C1C2C3CC(C2C(=O)N1c1cccc(Cl)c1)[C@H](O)C3O (some centres undefined),inconclusive: 4.69%,
O=C(CCCCl)NC(=S)Nc1ccc(CN2CCOCC2)cc1,,"inconclusive: 31.6 µM [rising, partial curve]"
CCc1c(C)nc2ncnn2c1N1CCCC(C(=O)Nc2cc(F)ccc2C)C1 (centres undefined),,"inconclusive: 29.1 µM [rising, single point]"
CN1CCN(c2ccccc2NC(=O)COc2ccccc2)CC1,inconclusive: -0.819%,
CCC1CCc2c(sc(NC(=O)c3ccco3)c2C(N)=O)C1 (centres undefined),inconclusive: 29.5%,
O=C(O)C1CCN(C(=O)CSc2nc3ccccc3s2)CC1,,"inconclusive: 5.62 µM [rising, single point]"
CC(=O)c1ccc(S(=O)(=O)NC(=O)NC2CCCCC2)cc1,inconclusive: -28.5%,
CC(=O)c1ccccc1Oc1ncnc(N)c1[N+](=O)[O-],inconclusive: 20.9%,
COc1ccc(-c2noc(=O)n2Cc2cc(C)ccc2C)cc1,inactive: 14.2%,
Cc1ccc([C@@H]2CC=C(C(=O)O)CN2S(=O)(=O)c2ccccc2C)cc1,inactive: 1.15%,
CCCc1cc(=O)n2[nH]c(NCc3cccs3)nc2n1,,"inconclusive: 29.1 µM [falling, partial curve]"
O=C(N/N=C/c1ccc(F)cc1)c1ccc(OCc2ccccc2)cc1,inconclusive: 10.6%,
CCc1ccccc1NC(=O)CCS(=O)(=O)c1ccc(OC)cc1,inconclusive: 3.91%,

Compound,"activity change, negative = inhibition",Potency
O=C(Cc1ccc(Cl)cc1)Nc1ccc(SC(F)F)cc1,inconclusive: 8.15%,
CCOC(=O)c1[nH]c(C)c(C(=O)N2CCN(c3cccc(Cl)c3)CC2)c1C,inconclusive: 2.27%,
Cc1cc(NC(=O)c2cc(-c3ccccc3Cl)nc3ccccc23)no1,inconclusive: -1.09%,
CC(C)Cn1c(N)c(C(=O)COC(=O)c2cccc(Cl)c2)c(=O)n(C)c1=O,inconclusive: 2.47%,
N#CC1=C(SCc2ccccc2)NC2=C(C(=O)CCC2)C1c1ccc2c(c1)OCO2 (centres undefined),,"inconclusive: 7.08 µM [rising, partial curve, poor fit]"
CC1=NN(c2ccccc2)C(=O)C1N=Nc1ccc(S(N)(=O)=O)cc1 (centres undefined),inconclusive: -7.08%,
COc1ccccc1/C=C/C(=O)OCC(=O)Nc1ccc2c(c1)OCO2,inconclusive: 0.546%,
O=c1cc(N=Nc2ccc(Cl)cc2)[nH]c(=O)[nH]1,inconclusive: -4.91%,
CC(C)Sc1ccc(C(=O)Nc2ccc(F)cc2F)cn1,,"inconclusive: 22.4 µM [falling, partial curve]"
CC(C)(C)OC(=O)N1CCN(C(=O)Cn2cc(CCO)nn2)CC1,inconclusive: 5.39%,
Cc1ccc(-c2cnc(-c3ccncc3)o2)cc1,inconclusive: -17.7%,
C=C(C)CNC(=S)N/N=C/c1ccc(N2CCOCC2)cc1,,"inconclusive: 23.1 µM [falling, partial curve, poor fit]"
O=C(Nc1cccc(S(=O)(=O)C(F)F)c1)c1ccc(Cl)c(S(=O)(=O)N2CCOCC2)c1,,"inconclusive: 20.6 µM [falling, single point]"
O=C(Nc1ccccc1)c1ccc2c(c1)OCCCO2,,"inconclusive: 31.6 µM [rising, partial curve]"
Cc1cc(C)cc(N(C(=O)c2csnn2)C(C(=O)NC2CCCCC2)c2cccnc2)c1 (centres undefined),inconclusive: -1.29%,
O=C(NN=C1CCCCCCCCCCC1)c1ccccc1F,,"inconclusive: 2.91 µM [falling, partial curve, poor fit]"
O=C(Cc1ccccc1)NNC(=O)Nc1ccc(Cl)c(Cl)c1,inconclusive: -0.281%,
S=C(NCc1ccco1)NC1CCCc2ccccc21 (centres undefined),inactive: 6.32%,
C=CCC[C@@H](Cc1ccc(F)cc1)C(=O)OC[C@@H](Cc1ccccc1)NC(=O)[C@@H](CC=C)CC(=O)N[C@@H](CO)Cc1ccccc1,inconclusive: 0.378%,
CN(CCO)CC(O)Cn1cnc2c1c(=O)n(C)c(=O)n2C (centres undefined) (tested in a mixture with another compound),inconclusive: 5.48%,
CNC(=S)N1CCN(c2nc3ccccc3s2)CC1,,"inconclusive: 35.5 µM [falling, single point]"
CC1(C)OC(=O)C(=Cc2ccc(-c3ccc(Cl)c(C(=O)O)c3)o2)C(=O)O1,inactive: -11.8%,
CSC1=NCCN1S(=O)(=O)c1ccc(NC(C)=O)cc1,inconclusive: 0.297%,
CN(C(=O)COC(=O)CSCc1cccc(Cl)c1)c1c(N)n(Cc2ccccc2)c(=O)[nH]c1=O,inconclusive: 4.95%,
Cc1[nH][nH]c(=O)c1C(c1ccc(O)c([N+](=O)[O-])c1)c1c(C)[nH][nH]c1=O,,"inconclusive: 20.6 µM [falling, partial curve]"
CCc1ccc(-c2cc(C(=O)N/N=C/c3c[nH]c4ccccc34)[nH]n2)cc1,inconclusive: -3.23%,
COc1ccc(C2C(C#N)=C(C)NC3=C2C(=O)CC(C)(C)C3)c(OC)c1 (centres undefined),inconclusive: 12.8%,

Compound,"activity change, negative = inhibition",Potency
CC(=O)N1c2ccc(S(=O)(=O)NCCC(=O)Nc3ccc(C)c(Cl)c3)cc2CC1C (centres undefined),inactive: 1.86%,
CCOC(=O)c1cc(-c2ccccc2C)n(Cc2cc(C)no2)n1,inconclusive: -18.8%,
CCCCOc1ccc(CSc2ncn[nH]2)cc1,,"inconclusive: 20 µM [falling, partial curve]"
N/C(=N\OC(=O)c1ccco1)c1ccccc1,inconclusive: -6.04%,
C/C(=N\N=c1/scc(C)n1Cc1ccco1)c1cccc([N+](=O)[O-])c1,inconclusive: 7.54%,
Cc1cc(C)c2nc(N3C(=O)C(O)=C(C(=O)c4ccco4)C3c3ccco3)sc2c1 (centres undefined),inactive: -0.272%,
Cc1ccc(OCc2nc(-c3ccccc3)no2)cc1,,"inconclusive: 22.4 µM [falling, single point]"
CCOc1cc(C(=O)OCc2ccc(OC)cc2)ccc1OCC(=O)N1CCOCC1,inconclusive: -7.76%,
Fc1ccccc1CN1CCCN(C(=S)Nc2cccc(Cl)c2)C1,,"inconclusive: 2.82 µM [falling, single point]"
CN(C)C(=O)c1ccc(NC(=O)COC(=O)/C=C/c2cccs2)cc1,inconclusive: 8.81%,
Cc1sc2ncnc(SCC(=O)c3ccc4c(c3)OCCO4)c2c1-c1ccccc1,inactive: 0.711%,
Cc1cc(C)cc(NS(=O)(=O)c2ccc(NC(=S)Nc3ccccc3)cc2)c1,,"inconclusive: 20.6 µM [falling, partial curve, poor fit]"
CCN1CCCC1CNC(=O)c1cc([N+](=O)[O-])c(N(C)C)cc1OC (centres undefined),inactive: -0.68%,
O=C(/C=C/c1cccnc1)c1ccc(O)cc1,,"inconclusive: 35.5 µM [falling, single point]"
CCOC(=O)c1cc(-c2ccccc2)n(CCC(=O)Nc2ccccc2CC)c1C,inconclusive: 2.96%,
N#Cc1ccc(C(=O)NC2CCCCCCC2)cc1,,"inconclusive: 17.8 µM [falling, single point]"
CCC(=O)N1CCCc2cc(S(=O)(=O)NCc3cccs3)ccc21,inconclusive: 6.34%,
N/C(=N\OC(=O)CCCN1C(=O)c2ccccc2C1=O)c1ccccn1,inconclusive: 11.1%,
CC(C)CNC(=O)CC(=O)N/N=C/c1ccc(Br)cc1,inconclusive: -14.1%,
O=C(Nc1ccc(Cl)cn1)c1cccc(S(=O)(=O)N2CCCC2)c1,inconclusive: 0.0016%,
CCCc1nc2cc(CC(=O)OC)ccc2o1,inconclusive: 6.69%,
OC1COC(O)C(O)C1O (centres undefined),inactive: -7.03%,
COC(=O)c1nn(-c2cccc(C(F)(F)F)c2)ccc1=O,inconclusive: -0.324%,
CC[C@]12c3[nH]c4ccccc4c3CCN1C(=O)C(CC(=O)NCc1cccc(C(F)(F)F)c1)C[C@@H]2C(=O)N1CCN(C(=O)C2CC2)CC1 (some centres undefined),inactive: 3.27%,
COc1cc(CO)ccc1OCc1ccc(Cl)nc1,,"inconclusive: 22.4 µM [falling, single point]"

# Entries above that have four or more nitrogen atoms, in the order listed:
Compound,"activity change, negative = inhibition",Potency
COc1cc2c(C#N)c(N3CCCC3)nc(N)c2c(N)n1,inconclusive: 9.27%,
CC1=NN(C(N)=S)C(=O)C1N=Nc1cccc(Cl)c1 (centres undefined),inconclusive: 0.371%,
CCCCN(C(=O)c1ccc(N2C(=O)c3ccccc3C2=O)cc1)c1c(N)n(CC(C)C)c(=O)[nH]c1=O,inconclusive: -2.15%,
NC(=O)CC(NC(=O)Cc1ccc(Cl)cc1)c1ccc(NC2CCN(Cc3ccccc3)CC2)c([N+](=O)[O-])c1 (centres undefined),,"inconclusive: 25.1 µM [falling, single point]"
CCc1c(C)nc2ncnn2c1N1CCCC(C(=O)Nc2cc(F)ccc2C)C1 (centres undefined),,"inconclusive: 29.1 µM [rising, single point]"
CC(=O)c1ccccc1Oc1ncnc(N)c1[N+](=O)[O-],inconclusive: 20.9%,
CCCc1cc(=O)n2[nH]c(NCc3cccs3)nc2n1,,"inconclusive: 29.1 µM [falling, partial curve]"
CC1=NN(c2ccccc2)C(=O)C1N=Nc1ccc(S(N)(=O)=O)cc1 (centres undefined),inconclusive: -7.08%,
O=c1cc(N=Nc2ccc(Cl)cc2)[nH]c(=O)[nH]1,inconclusive: -4.91%,
CC(C)(C)OC(=O)N1CCN(C(=O)Cn2cc(CCO)nn2)CC1,inconclusive: 5.39%,
C=C(C)CNC(=S)N/N=C/c1ccc(N2CCOCC2)cc1,,"inconclusive: 23.1 µM [falling, partial curve, poor fit]"
Cc1cc(C)cc(N(C(=O)c2csnn2)C(C(=O)NC2CCCCC2)c2cccnc2)c1 (centres undefined),inconclusive: -1.29%,
CN(CCO)CC(O)Cn1cnc2c1c(=O)n(C)c(=O)n2C (centres undefined) (tested in a mixture with another compound),inconclusive: 5.48%,
CNC(=S)N1CCN(c2nc3ccccc3s2)CC1,,"inconclusive: 35.5 µM [falling, single point]"
CN(C(=O)COC(=O)CSCc1cccc(Cl)c1)c1c(N)n(Cc2ccccc2)c(=O)[nH]c1=O,inconclusive: 4.95%,
Cc1[nH][nH]c(=O)c1C(c1ccc(O)c([N+](=O)[O-])c1)c1c(C)[nH][nH]c1=O,,"inconclusive: 20.6 µM [falling, partial curve]"
CCc1ccc(-c2cc(C(=O)N/N=C/c3c[nH]c4ccccc34)[nH]n2)cc1,inconclusive: -3.23%,
C/C(=N\N=c1/scc(C)n1Cc1ccco1)c1cccc([N+](=O)[O-])c1,inconclusive: 7.54%,
CCN1CCCC1CNC(=O)c1cc([N+](=O)[O-])c(N(C)C)cc1OC (centres undefined),inactive: -0.68%,
N/C(=N\OC(=O)CCCN1C(=O)c2ccccc2C1=O)c1ccccn1,inconclusive: 11.1%,
CC[C@]12c3[nH]c4ccccc4c3CCN1C(=O)C(CC(=O)NCc1cccc(C(F)(F)F)c1)C[C@@H]2C(=O)N1CCN(C(=O)C2CC2)CC1 (some centres undefined),inactive: 3.27%,

# — PubChem BioAssay AID493014 (National Center for Advancing Translational Sciences (NCATS), 2011)
